Measured values reported in publication doi:10.1101/844498.
Results are given in words; binding and its absence hold for the method and conditions named.

Tests used:
[1] = molecular target: human Mcm10 internal domain (hMcm10-ID, residues 236-435), wild type (human) (UniProt Q7L590); assay: SEC
[2] = molecular target: human Mcm10 internal domain lacking the N-terminal 20 residues (ΔN20, amino acids 256-435) (human) (UniProt Q7L590); assay: SEC

Row | Binder | binding [1] | binding [2]
1 | human Mcm10 internal domain (hMcm10-ID, residues 236-435), wild type (domain or fragment, UniProt Q7L590-2 236-435) GPSSGETTQPICVEAFSGLRLRRPRVSSTEMNKKMTGRKLIRLSQIKEKMAREKLEEIDWVTFGVILKKVTPQSVNSGKTFSIWKLNDLRDLTQCVSLFLFGEVHKALWKTEQGTVVGILNANPMKPKDGSEEVCLSIDHPQKVLIMGEALDLGTCKAKKKNGEPCTQTVNLRDCEYCQYHVQAQYKKLSAKRADLQSTFSG | no binding (tested: 5 mg ml-1 injected) | –
2 | human Mcm10 internal domain lacking the N-terminal 20 residues (ΔN20, amino acids 256-435) (domain or fragment, UniProt Q7L590-2 256-435) GPRPRVSSTEMNKKMTGRKLIRLSQIKEKMAREKLEEIDWVTFGVILKKVTPQSVNSGKTFSIWKLNDLRDLTQCVSLFLFGEVHKALWKTEQGTVVGILNANPMKPKDGSEEVCLSIDHPQKVLIMGEALDLGTCKAKKKNGEPCTQTVNLRDCEYCQYHVQAQYKKLSAKRADLQSTFSG | – | no binding (tested: 5 mg ml-1 injected)
